Experimental data taken from PubChem BioAssay AID2073 (Sanford-Burnham Center for Chemical Genomics, 2009).
The campaign covered roughly 290,000 compounds. About 570 (0.2%) were called active. Inconclusive results, whose numbers are uncertain, are shown with a selection of clear calls. Cut-off read from the data, not from the text of the source: active = inhibition mostly above about 51% (no sharp cut-off); inconclusive = no clear call, values can overlap the other calls; inactive = mostly below about 53%.

By UniProt entry, the sequences of proteins in these tests, tags left out.
UniProt Q00975, whole entry, looked up: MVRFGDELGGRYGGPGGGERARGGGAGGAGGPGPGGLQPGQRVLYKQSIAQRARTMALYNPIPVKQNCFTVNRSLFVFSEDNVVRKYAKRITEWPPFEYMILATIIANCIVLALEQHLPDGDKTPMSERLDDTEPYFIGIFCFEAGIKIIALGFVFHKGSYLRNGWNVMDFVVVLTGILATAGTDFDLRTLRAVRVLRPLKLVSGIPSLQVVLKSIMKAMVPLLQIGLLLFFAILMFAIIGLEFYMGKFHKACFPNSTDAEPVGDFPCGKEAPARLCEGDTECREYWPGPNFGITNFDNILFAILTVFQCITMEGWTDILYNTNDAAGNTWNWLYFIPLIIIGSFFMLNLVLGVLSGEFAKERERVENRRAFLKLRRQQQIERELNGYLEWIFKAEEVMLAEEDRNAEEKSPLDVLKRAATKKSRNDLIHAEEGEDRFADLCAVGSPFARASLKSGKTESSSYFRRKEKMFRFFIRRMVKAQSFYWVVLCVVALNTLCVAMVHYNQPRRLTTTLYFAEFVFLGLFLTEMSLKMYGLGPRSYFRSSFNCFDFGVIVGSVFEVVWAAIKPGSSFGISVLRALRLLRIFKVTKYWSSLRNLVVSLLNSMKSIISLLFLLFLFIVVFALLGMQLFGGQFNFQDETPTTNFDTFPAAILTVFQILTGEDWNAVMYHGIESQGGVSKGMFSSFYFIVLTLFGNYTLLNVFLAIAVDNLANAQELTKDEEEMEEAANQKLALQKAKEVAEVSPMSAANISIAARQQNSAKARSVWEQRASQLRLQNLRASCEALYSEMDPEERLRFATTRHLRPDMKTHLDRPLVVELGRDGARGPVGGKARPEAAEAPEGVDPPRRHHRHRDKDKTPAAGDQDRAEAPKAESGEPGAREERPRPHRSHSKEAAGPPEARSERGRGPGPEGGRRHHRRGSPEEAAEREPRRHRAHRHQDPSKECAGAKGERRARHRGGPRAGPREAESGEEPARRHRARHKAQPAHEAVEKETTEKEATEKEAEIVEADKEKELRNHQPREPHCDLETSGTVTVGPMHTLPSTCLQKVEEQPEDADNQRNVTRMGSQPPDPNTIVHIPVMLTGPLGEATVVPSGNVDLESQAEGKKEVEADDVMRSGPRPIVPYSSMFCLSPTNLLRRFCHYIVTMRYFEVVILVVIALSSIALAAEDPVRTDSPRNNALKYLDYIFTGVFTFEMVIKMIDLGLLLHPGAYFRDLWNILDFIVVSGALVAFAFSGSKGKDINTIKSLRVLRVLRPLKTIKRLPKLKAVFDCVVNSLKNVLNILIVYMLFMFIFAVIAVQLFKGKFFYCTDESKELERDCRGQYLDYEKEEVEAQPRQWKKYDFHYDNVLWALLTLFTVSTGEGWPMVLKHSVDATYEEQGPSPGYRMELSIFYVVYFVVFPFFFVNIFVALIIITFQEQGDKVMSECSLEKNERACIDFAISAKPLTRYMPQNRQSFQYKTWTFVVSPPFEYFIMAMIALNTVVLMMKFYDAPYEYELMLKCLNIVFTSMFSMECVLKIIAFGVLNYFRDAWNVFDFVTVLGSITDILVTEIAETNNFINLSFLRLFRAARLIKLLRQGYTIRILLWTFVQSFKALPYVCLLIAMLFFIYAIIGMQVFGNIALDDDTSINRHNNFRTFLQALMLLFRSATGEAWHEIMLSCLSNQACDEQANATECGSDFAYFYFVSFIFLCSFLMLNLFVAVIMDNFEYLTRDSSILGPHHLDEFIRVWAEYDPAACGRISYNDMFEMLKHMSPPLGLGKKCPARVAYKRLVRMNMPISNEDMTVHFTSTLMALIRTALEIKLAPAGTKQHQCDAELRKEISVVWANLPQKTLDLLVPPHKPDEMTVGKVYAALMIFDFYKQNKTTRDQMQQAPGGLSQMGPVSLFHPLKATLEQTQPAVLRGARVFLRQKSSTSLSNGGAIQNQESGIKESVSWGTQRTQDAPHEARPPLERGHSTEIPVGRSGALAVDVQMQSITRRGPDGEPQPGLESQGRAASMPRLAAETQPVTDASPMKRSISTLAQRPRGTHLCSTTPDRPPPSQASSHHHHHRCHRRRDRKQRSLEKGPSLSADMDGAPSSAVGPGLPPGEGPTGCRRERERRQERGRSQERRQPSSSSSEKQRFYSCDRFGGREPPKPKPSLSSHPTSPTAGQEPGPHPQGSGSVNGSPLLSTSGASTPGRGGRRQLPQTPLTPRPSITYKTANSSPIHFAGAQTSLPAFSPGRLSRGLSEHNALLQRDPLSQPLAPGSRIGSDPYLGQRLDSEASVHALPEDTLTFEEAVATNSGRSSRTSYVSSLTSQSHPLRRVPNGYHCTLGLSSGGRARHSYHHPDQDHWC

Each compound was assayed against Voltage-dependent N-type calcium channel subunit alpha-1B (Homo sapiens) (UniProt Q00975) (assay: disruptors of CaV2.2 binding to Mint1 – biochemical, HTRF (AID 2073)). Settings: HTRF protein-protein interaction, Mint1-CaV2.2; at 20 µM; hits give high values.
For `O=C(CC1C(=O)NCCN1Cc1cccc(F)c1)NCCCOc1cccnc1` (stereo not given), the inhibition was inactive: 0.9%. For `NC(=O)C1(C(N)=O)OC1c1ccc(Cl)cc1Cl` (stereo not given), the inhibition was inactive: 6.5%. In the case of `O=[N+]([O-])c1ccc(Cl)c2c1C1C=CCC1C(c1ccccn1)N2` (stereo not given), the inhibition is reported as active: 79.5%. `O=C(NCc1ccco1)c1cnc2ccccn2c1=O` was tested, and the inhibition was inactive: 0.3%. `COc1ccc(CCNC(=O)Cn2c(=O)n(-c3ccc(F)cc3)c(=O)c3sccc32)cc1OC` was tested, and the inhibition was inconclusive: 92.1%. For `NC(N)=Nc1nc2cc([N+](=O)[O-])ccc2o1`, the inhibition was inconclusive: 77.5%. `O=C(Nc1cccc(F)c1)c1ccc(Cn2cc([N+](=O)[O-])cn2)o1` was tested, and the inhibition was inconclusive: 84%. With `COC(=O)C1C(=O)NC(SC)=C(C#N)C1c1ccccc1` (stereo not given) the inhibition was inactive: -20.5%. With `Cc1ccc(S(=O)(=O)N/N=C\c2cn(CC(N)=O)c3ccccc23)cc1C` the inhibition was inconclusive: 79.8%. `CC1CCCN(CCCNC(=O)c2ccc3c(c2)N(Cc2ccccc2F)C(=O)c2ccccc2S3(=O)=O)C1` (stereo not given) was tested, and the inhibition was inconclusive: 91%. `CCCOc1ccc(/C=N/NC(=O)CSCc2ccc([N+](=O)[O-])cc2)cc1OCC` was tested, and the inhibition was inconclusive: 80.1%. For `Cc1nc(C(=O)NNC(=O)Nc2ccccc2)cs1`, the inhibition was inconclusive: 89.9%. With `O=C(Nc1nc2ccccc2n1CCN1CCOCC1)c1cn(-c2ccccc2)nc1-c1ccccc1` the inhibition was inconclusive: 66.4%. `Cc1ccc(S(=O)(=O)Nc2cc(-c3ccccc3)nn2C)cc1` was tested, and the inhibition was inconclusive: 81.2%. `Cn1cnnc1SCC(=O)Nc1ccccc1` was tested, and the inhibition was inconclusive: 81.4%. For `O=C(Nc1ccc2oc(-c3ccccc3F)nc2c1)c1ncn[nH]1`, the inhibition was inactive: 2.6%. For `Brc1ccc(/C=C/C=N/Nc2nc3ccccc3s2)cc1`, the inhibition was inactive: 5.3%. In the case of `CN1CCN(c2ccc(NC(=O)COc3ccccc3Cl)cc2)CC1`, the inhibition is reported as inconclusive: 54.1%. `CC1=CC(C)(C)N(C)C(=O)N1c1ccc(Cl)cc1` was tested, and the inhibition was inactive: -2.6%. In the case of `CCC(NC(=O)Cc1c(C)c2c(cc(C)c3c(C)c(C)oc32)oc1=O)C(=O)O` (stereo not given), the inhibition is reported as inconclusive: 53.9%. For `CCOc1cc(/C=N/NC(=O)CN2CCCCC2)ccc1OCc1ccccc1`, the inhibition was inconclusive: 72.2%. For `Cc1c(-c2ccnc3cc(C(=O)O)nn23)cnn1C`, the inhibition was inactive: 49.5%. In the case of `COc1ccc(C(=O)COC(=O)c2ccc(NC(=O)c3ccccc3)cc2)cc1`, the inhibition is reported as inconclusive: 52.7%. With `CN(C)S(=O)(=O)c1cc(NC(=O)CSc2nn(-c3ccc(Cl)cc3)c(=S)s2)ccc1Cl` the inhibition was inconclusive: 50.5%. With `Fc1ccc(Nc2nnc(C(F)(F)F)s2)cc1Cl` the inhibition was inactive: 10.6%.
